# Screening data, single-dose tests

Sequences of proteins named here, by UniProt entry; tags and fusion partners are left off. Residues count along the entry.
UniProt P9WNZ1, whole entry: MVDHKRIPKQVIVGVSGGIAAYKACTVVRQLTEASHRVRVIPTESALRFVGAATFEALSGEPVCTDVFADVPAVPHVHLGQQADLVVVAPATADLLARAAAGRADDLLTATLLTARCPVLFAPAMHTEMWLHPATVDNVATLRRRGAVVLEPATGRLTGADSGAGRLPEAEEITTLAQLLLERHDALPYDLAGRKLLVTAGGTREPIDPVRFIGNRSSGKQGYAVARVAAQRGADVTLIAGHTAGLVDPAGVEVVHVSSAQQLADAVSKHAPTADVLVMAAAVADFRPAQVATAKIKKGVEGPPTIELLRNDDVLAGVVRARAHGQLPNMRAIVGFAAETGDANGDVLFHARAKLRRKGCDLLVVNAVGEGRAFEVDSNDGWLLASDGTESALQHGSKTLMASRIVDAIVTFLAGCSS
UniProt I6X8D2, whole entry: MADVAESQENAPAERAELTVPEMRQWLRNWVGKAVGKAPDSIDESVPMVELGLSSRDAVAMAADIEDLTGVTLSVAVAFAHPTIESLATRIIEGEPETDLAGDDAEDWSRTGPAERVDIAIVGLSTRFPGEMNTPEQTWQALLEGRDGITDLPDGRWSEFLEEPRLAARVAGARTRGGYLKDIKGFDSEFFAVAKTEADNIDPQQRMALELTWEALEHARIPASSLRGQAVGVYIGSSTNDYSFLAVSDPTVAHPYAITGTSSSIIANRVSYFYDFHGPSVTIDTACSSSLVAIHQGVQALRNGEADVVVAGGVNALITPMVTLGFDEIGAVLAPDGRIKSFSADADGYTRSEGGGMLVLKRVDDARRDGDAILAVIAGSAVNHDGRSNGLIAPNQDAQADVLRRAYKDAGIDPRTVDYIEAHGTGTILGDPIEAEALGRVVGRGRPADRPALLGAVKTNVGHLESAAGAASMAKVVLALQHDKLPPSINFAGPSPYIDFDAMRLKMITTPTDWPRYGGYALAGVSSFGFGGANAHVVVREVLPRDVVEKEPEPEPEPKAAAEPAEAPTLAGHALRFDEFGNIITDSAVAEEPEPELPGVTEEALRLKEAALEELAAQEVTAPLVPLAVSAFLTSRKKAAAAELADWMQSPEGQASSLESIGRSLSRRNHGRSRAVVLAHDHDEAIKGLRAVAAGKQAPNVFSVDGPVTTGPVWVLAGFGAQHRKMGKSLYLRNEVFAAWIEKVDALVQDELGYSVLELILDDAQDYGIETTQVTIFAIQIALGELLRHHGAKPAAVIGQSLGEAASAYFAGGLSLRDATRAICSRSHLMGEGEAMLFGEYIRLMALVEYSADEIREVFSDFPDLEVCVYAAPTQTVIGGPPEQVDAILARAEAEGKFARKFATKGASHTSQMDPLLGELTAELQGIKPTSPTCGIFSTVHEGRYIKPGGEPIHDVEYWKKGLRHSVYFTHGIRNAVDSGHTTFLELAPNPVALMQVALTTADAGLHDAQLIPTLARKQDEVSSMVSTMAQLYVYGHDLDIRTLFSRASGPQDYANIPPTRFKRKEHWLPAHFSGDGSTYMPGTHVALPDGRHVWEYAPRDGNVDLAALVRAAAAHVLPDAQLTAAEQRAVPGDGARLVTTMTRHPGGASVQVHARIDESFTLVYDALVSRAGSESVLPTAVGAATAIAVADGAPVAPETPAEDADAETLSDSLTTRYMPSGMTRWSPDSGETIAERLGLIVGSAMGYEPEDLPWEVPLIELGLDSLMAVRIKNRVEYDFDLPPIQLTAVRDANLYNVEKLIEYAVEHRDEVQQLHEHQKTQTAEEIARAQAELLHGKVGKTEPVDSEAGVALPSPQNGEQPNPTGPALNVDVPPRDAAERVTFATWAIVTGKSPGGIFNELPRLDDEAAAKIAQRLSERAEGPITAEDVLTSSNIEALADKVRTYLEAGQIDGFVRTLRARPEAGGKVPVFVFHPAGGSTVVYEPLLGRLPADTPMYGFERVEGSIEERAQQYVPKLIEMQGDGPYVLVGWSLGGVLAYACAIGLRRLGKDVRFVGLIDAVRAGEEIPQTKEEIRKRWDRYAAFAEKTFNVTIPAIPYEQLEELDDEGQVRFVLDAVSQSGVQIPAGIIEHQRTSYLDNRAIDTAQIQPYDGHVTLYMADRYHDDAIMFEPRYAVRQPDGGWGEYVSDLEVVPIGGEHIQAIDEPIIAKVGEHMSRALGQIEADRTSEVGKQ
UniProt P9WPC5, whole entry: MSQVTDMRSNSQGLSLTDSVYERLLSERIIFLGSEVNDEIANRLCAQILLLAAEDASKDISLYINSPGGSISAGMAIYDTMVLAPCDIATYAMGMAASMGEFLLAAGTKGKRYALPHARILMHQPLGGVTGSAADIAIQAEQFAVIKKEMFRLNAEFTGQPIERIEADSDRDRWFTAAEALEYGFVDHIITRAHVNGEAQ
UniProt P9WPC3, whole entry partner: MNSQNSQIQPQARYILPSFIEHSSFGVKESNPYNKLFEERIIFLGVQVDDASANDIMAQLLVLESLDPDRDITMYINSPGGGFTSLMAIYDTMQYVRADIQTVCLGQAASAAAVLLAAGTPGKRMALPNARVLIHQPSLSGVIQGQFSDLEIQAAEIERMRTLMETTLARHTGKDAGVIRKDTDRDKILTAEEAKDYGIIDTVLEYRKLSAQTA
UniProt Q4DA54, 1-478: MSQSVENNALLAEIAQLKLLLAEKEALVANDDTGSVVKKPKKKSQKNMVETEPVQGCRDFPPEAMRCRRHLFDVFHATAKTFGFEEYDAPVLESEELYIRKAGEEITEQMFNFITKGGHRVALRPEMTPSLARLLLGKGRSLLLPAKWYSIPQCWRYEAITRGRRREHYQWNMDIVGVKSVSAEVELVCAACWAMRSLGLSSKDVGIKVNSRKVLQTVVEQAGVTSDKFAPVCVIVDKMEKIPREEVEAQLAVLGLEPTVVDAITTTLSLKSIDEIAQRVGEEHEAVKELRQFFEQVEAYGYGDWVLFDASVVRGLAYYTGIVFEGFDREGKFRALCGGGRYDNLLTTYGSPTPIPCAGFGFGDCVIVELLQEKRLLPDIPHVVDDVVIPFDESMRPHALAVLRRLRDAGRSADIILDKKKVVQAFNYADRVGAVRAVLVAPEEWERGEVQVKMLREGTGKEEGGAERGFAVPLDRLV

CoaBC: 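Coenzyme A biosynthesis protein CoaBC, Mycobacterium tuberculosis (UniProt P9WNZ1). Enzyme assay of CoaBC with a phosphate dye (Biomol Green) read at 650 nm. Compounds at 30 µM. Higher reads as stronger inhibition, judged from the few compounds that gave an IC50. Most strong results did not repeat in a second test. About 67,000 compounds were tested under these conditions; 0.06% (about 40) showed 50% or more at least once.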
Leishmania in macrophages: 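Cell assay of Leishmania donovani living inside macrophages; the read-out is not stated. Compounds at 30 µM. The record gives no direction; compounds that gave an IC50 in retests scored well above the rest, so higher reads as stronger inhibition. Size under these conditions: about 69,000 compounds, about 1,000 of them at 50% or above in at least one test.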
Pks13 thioesterase: 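Polyketide synthase Pks13, Mycobacterium tuberculosis (UniProt I6X8D2). Enzyme assay of the thioesterase domain of polyketide synthase 13; the read-out is not stated. Tested at 30 µM. The record gives no direction; the compounds picked for IC50 retests had high values, so higher reads as stronger inhibition. About 67,000 compounds were tested under these conditions; 0.46% (about 300) showed 50% or more at least once.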
ClpP1P2: 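ClpP1P2, Mycobacterium tuberculosis (UniProt P9WPC5 and UniProt P9WPC3). Protease assay of ClpP1P2, read by the AMC dye that it sets free. Compounds at 50 µM. Direction is inferred from only a few compounds that gave an IC50; most scored high, so higher reads as stronger inhibition. Most other retested compounds had strongly negative values. Of about 69,000 compounds tested this way, about 10 (0.015%) reached 50% or more in at least one test.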
TcHisRS: 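Histidine-tRNA ligase, Trypanosoma cruzi CL Brener (UniProt Q4DA54). Enzyme assay of histidyl-tRNA synthetase; the read-out is not stated. Compounds at 30 µM. Direction is inferred from retests: higher values go with stronger inhibition. Size under these conditions: about 69,000 compounds, about 31 of them at 50% or above in at least one test.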

Results are given as percent effect. How 0% and 100% were set is not recorded. Most values in the screen are low, and negative values occur. Compounds were drawn at random from those tested, without regard to their results. Two or more numbers in one place are separate tests of the same structure; such repeats can differ widely.

{"smiles": "CCN1CCCC1Cn1ccc2ccc(C(=O)OC)cc2c1=O", "stereo": "stereo unspecified", "CoaBC": 3.498, "Leishmania in macrophages": -29.19, "ClpP1P2": -6.762, "TcHisRS": -0.5025}
{"smiles": "N[C@@H]1CCC[C@@H](Oc2ccc(F)cc2Oc2cccc(F)c2)[C@@H]1O", "CoaBC": 2.92, "Leishmania in macrophages": "10.61 & 20.56", "ClpP1P2": 0.8001, "TcHisRS": 4.478}
{"smiles": "Cc1noc(C)c1CN1CCO[C@H]2CN(Cc3ccc(F)cc3)C[C@H]21", "CoaBC": 8.705, "Pks13 thioesterase": -0.2006, "ClpP1P2": 0.05302, "TcHisRS": 7.2}
{"smiles": "[H][C@]12CN(Cc3ccco3)C[C@@]1([H])OCCN(C(=O)c1cccn1C)C2", "Leishmania in macrophages": 19.73}
{"smiles": "CCN(C)Cc1cccc(CNC(=O)CSCc2ccncc2)c1", "CoaBC": 1.294, "Leishmania in macrophages": 16.4, "Pks13 thioesterase": 18.87, "ClpP1P2": 16.5, "TcHisRS": 11.06}
{"smiles": "c1ccc(OCC2CC3(CCN(Cc4ccncc4)CC3)CO2)nc1", "stereo": "stereo unspecified", "CoaBC": -1.211, "Leishmania in macrophages": 0.4311, "Pks13 thioesterase": -23.88, "ClpP1P2": -1.304, "TcHisRS": -4.918}
{"smiles": "Cc1cccc(CNCC2COC3(CCCC3)O2)c1C", "stereo": "stereo unspecified", "CoaBC": -2.899, "Leishmania in macrophages": -4.817, "Pks13 thioesterase": -3.264, "ClpP1P2": 3.126, "TcHisRS": 0.6452}
{"smiles": "COc1ccc(COCC(O)CNC(=O)c2cc(C)no2)cc1", "stereo": "stereo unspecified", "CoaBC": 2.163, "Leishmania in macrophages": 2.152, "Pks13 thioesterase": -5.465, "ClpP1P2": -6.487, "TcHisRS": 4.507}
{"smiles": "Cc1ccc2nc(C(=O)N3CC(n4nc(C)cc4C)C3)cn2c1", "CoaBC": 3.067, "Leishmania in macrophages": 17.58, "Pks13 thioesterase": 6.324, "ClpP1P2": 1.863, "TcHisRS": 3.704}
{"smiles": "CS(=O)(=O)N1CCN(c2cc(-n3cccc3)ncn2)CC1", "CoaBC": -2.132, "Leishmania in macrophages": -1.088, "Pks13 thioesterase": -10.05, "ClpP1P2": -3.853, "TcHisRS": 6.736}
{"smiles": "CC(=O)N1CCOCC2(CCN(Cc3ccc(C)s3)CC2)C1", "CoaBC": 2.665, "Pks13 thioesterase": -13.88, "ClpP1P2": 4.193, "TcHisRS": 1.622}
{"smiles": "CC(N)Cc1ccccc1Sc1ccccc1.O=C(O)/C=C\\C(=O)O", "stereo": "stereo unspecified", "Leishmania in macrophages": 100.2}
{"smiles": "CCCN1CCCn2nc(CNS(=O)(=O)c3cnn(CC)c3)cc2C1", "CoaBC": 3.553, "Leishmania in macrophages": 29.05, "Pks13 thioesterase": -21.07, "ClpP1P2": -11.75, "TcHisRS": -0.4484}
{"smiles": "COc1ccccc1-c1ncc(CN2CCC3(CCNCC3)CC2)cn1", "CoaBC": -10.71, "Leishmania in macrophages": -3.102, "Pks13 thioesterase": -13.08, "ClpP1P2": -6.916, "TcHisRS": 2.762}
{"smiles": "N#Cc1ccc(Oc2cc(F)c(CN3CCCC3)c(F)c2)nc1", "CoaBC": 1.222, "Leishmania in macrophages": -65.82, "Pks13 thioesterase": -21.65, "ClpP1P2": -6.878, "TcHisRS": 0}
{"smiles": "CN1CC(=O)N(c2ccccc2)CC12CCN(C(=O)c1cccs1)C2.O=C(O)C(F)(F)F", "stereo": "stereo unspecified", "Leishmania in macrophages": 30.29}
{"smiles": "CN1CC(=O)N(c2cccc(F)c2)CC12CCN(Cc1ccncc1)C2", "stereo": "stereo unspecified", "CoaBC": -22.95, "Pks13 thioesterase": 0.7968, "ClpP1P2": 2.766, "TcHisRS": -1.075}
{"smiles": "CCOc1ncccc1CNC(=O)N1CCCC1c1ccncc1", "stereo": "stereo unspecified", "CoaBC": -8.929, "Leishmania in macrophages": -0.1984, "Pks13 thioesterase": -3.687, "ClpP1P2": -12.87, "TcHisRS": 5.394}
{"smiles": "Cn1ccnc1COc1ccc(CO)cc1", "CoaBC": 0.9639, "Leishmania in macrophages": -8.627, "Pks13 thioesterase": -6.664, "ClpP1P2": 9.18, "TcHisRS": 4.58}
{"smiles": "CCn1nnc2c1CCN(S(C)(=O)=O)C2COCc1ccccc1", "stereo": "stereo unspecified", "CoaBC": -1.903, "Leishmania in macrophages": "-31.81 & -9.626", "Pks13 thioesterase": -26.14, "ClpP1P2": 7.73, "TcHisRS": 4.301}
{"smiles": "CN(CC(F)(F)F)C(=O)c1ccc(F)c(NS(C)(=O)=O)c1", "Leishmania in macrophages": 13.99, "Pks13 thioesterase": -45.3, "ClpP1P2": 2.917, "TcHisRS": 9.091}
{"smiles": "[H][C@]12CN(Cc3cc(C)no3)CCN1C[C@H](c1ccccc1)[C@H]2C(=O)NC", "Leishmania in macrophages": 8.822}

Once more, the final 3:

{"smiles": "CCn1nnc2c1CCN(S(C)(=O)=O)C2COCc1ccccc1", "stereo": "stereo unspecified", "CoaBC": -1.903, "Leishmania in macrophages": "-31.81 & -9.626", "Pks13 thioesterase": -26.14, "ClpP1P2": 7.73, "TcHisRS": 4.301}
{"smiles": "CN(CC(F)(F)F)C(=O)c1ccc(F)c(NS(C)(=O)=O)c1", "Leishmania in macrophages": 13.99, "Pks13 thioesterase": -45.3, "ClpP1P2": 2.917, "TcHisRS": 9.091}
{"smiles": "[H][C@]12CN(Cc3cc(C)no3)CCN1C[C@H](c1ccccc1)[C@H]2C(=O)NC", "Leishmania in macrophages": 8.822}

Measurements from “University of Dundee, Small-Polar-MMV Screening Library” (2021), ChEMBL document CHEMBL3988442.